Source: publication PMC12257754
Results are given in words; binding and its absence hold for the method and conditions named. Binding seen in cells or lysates may run through a third protein. Some results given as binding are weak or reduced against the parent protein; the word gives no strength.

Sequences of proteins named here, by UniProt entry; tags and fusion partners are left off. Residues count along the entry.
UniProt Q9BXM7, residues 78-581: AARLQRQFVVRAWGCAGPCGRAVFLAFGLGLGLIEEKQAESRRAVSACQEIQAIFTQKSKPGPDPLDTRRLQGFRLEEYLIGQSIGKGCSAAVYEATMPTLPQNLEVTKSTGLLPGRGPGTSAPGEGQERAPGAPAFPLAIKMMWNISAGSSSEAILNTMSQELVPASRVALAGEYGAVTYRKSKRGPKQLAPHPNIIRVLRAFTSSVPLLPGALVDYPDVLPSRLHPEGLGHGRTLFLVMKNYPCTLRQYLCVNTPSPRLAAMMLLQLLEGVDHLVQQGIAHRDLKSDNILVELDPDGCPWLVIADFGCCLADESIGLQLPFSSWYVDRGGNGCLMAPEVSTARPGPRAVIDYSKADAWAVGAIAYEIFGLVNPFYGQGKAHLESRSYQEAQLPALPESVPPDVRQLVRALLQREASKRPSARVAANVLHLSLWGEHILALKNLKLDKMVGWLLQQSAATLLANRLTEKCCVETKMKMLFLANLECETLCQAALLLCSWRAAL
UniProt P11142: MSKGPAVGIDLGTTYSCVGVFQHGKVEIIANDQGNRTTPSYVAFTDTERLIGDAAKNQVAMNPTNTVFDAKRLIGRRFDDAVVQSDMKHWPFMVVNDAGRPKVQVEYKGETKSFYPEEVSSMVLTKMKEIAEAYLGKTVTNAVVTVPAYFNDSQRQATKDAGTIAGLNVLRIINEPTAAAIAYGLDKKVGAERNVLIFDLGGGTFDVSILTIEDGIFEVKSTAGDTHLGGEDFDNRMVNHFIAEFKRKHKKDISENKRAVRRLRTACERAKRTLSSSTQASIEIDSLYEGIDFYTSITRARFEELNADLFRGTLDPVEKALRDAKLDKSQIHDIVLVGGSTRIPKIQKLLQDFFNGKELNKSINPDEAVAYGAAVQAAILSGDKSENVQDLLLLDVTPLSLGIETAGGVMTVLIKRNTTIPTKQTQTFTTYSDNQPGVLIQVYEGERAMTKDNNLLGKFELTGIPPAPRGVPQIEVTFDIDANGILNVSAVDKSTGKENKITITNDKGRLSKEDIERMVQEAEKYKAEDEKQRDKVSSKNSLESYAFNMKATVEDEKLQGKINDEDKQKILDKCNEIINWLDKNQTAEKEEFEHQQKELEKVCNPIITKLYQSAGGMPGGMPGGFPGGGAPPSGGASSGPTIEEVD

Molecular target: PINK1 (UniProt Q9BXM7)
Test: co-IP; Co-IP Kit (BersinBio, Bes3011): cells lysed, incubated with the target antibody overnight, Protein A/G-MagBeads, washed, eluted, detected by WB; bait antibody and cell line not stated

For “HSPA8 protein (from UniProt P11142 1-646)”, the binding was “binds”.
